From the supplement of paper PMC12823440, “Inhibitors supercharge kinase turnover through native proteolytic circuits” (Nature, 2025)
The other results are listed elsewhere or left out. Hit calls seldom repeat between salt and free forms of one compound.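 Kinases were expressed as nanoluciferase fusions in K562 cells and luminescence was read every 4 h between 2 and 18 h as percent of control, DMSO set to 100% and a positive control to 0%. A time point counts as decreased when the signal drops significantly (2 sigma). The hit call is the authors' own, does not follow from the count of time points alone, and its rule is not shown.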

By UniProt entry, the sequences of proteins in these tests, tags left out. Where a name states a change or a piece, a line headed by the entry shows the natural chain unless it says otherwise.
UniProt O14965: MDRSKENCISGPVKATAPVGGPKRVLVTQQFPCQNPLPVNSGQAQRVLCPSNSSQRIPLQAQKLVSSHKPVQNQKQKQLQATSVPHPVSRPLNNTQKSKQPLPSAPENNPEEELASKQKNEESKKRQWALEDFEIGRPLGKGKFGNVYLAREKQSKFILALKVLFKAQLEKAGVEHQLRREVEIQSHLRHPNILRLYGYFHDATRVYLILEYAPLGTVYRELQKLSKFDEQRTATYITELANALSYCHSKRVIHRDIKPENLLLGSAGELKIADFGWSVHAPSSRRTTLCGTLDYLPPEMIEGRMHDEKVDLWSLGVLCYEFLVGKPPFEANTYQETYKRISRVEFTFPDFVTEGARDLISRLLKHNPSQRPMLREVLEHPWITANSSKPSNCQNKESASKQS
UniProt Q15418, whole entry: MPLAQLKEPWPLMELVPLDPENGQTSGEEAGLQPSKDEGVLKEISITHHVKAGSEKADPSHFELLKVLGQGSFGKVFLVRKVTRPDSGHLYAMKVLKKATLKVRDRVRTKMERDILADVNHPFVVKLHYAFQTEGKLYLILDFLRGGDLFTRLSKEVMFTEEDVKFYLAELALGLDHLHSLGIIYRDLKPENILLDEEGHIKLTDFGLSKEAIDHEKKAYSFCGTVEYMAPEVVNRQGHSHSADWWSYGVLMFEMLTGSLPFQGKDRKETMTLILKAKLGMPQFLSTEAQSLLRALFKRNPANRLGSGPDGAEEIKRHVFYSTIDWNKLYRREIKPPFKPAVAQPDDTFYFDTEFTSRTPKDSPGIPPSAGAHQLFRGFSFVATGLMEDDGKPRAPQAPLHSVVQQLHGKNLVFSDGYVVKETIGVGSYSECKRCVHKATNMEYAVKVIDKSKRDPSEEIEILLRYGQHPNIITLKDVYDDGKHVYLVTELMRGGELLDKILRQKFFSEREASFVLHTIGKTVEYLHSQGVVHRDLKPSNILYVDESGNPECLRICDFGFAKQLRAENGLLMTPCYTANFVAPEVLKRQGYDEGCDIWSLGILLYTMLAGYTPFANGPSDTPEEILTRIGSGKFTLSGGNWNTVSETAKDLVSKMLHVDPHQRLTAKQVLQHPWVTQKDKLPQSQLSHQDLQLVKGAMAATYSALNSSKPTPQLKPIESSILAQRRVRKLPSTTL
UniProt P28482, whole entry: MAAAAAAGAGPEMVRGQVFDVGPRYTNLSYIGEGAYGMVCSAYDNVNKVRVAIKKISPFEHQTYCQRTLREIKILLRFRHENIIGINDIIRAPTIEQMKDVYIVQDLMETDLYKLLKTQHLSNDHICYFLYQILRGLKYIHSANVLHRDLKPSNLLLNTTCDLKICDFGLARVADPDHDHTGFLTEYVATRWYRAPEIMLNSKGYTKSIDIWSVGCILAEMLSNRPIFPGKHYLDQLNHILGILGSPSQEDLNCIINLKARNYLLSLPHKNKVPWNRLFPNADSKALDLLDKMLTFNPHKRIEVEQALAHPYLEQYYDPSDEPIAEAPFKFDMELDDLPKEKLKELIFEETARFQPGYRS
UniProt P42680: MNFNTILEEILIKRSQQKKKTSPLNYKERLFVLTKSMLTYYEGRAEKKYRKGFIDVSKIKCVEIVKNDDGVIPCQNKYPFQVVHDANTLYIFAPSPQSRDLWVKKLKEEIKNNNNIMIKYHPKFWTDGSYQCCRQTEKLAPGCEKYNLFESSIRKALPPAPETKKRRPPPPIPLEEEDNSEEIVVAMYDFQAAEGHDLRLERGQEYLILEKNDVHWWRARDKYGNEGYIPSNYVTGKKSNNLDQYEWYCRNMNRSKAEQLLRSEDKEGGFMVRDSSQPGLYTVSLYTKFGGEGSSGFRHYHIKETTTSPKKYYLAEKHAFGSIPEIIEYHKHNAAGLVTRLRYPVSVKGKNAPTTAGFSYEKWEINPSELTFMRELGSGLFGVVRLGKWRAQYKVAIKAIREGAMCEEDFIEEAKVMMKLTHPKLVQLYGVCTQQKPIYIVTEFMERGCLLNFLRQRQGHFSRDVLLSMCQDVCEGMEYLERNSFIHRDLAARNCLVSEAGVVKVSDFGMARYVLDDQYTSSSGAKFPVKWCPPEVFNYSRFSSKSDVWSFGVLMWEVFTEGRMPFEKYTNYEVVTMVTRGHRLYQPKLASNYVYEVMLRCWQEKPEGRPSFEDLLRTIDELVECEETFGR
UniProt Q9BRS2: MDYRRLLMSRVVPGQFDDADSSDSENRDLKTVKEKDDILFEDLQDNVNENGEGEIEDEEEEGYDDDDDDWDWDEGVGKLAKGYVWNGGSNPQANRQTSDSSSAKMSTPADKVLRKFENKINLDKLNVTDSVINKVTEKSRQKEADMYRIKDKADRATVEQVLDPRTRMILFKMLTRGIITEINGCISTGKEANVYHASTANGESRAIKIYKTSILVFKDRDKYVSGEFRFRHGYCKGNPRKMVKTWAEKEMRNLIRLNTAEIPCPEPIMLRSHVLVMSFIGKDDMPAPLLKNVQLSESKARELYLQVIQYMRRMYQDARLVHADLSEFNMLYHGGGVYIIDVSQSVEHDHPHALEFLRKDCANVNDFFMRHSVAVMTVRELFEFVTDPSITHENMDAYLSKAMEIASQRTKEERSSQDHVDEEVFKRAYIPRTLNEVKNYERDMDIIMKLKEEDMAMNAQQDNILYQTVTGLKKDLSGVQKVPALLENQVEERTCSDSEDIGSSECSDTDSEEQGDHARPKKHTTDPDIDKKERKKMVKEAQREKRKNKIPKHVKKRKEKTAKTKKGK
UniProt O15530: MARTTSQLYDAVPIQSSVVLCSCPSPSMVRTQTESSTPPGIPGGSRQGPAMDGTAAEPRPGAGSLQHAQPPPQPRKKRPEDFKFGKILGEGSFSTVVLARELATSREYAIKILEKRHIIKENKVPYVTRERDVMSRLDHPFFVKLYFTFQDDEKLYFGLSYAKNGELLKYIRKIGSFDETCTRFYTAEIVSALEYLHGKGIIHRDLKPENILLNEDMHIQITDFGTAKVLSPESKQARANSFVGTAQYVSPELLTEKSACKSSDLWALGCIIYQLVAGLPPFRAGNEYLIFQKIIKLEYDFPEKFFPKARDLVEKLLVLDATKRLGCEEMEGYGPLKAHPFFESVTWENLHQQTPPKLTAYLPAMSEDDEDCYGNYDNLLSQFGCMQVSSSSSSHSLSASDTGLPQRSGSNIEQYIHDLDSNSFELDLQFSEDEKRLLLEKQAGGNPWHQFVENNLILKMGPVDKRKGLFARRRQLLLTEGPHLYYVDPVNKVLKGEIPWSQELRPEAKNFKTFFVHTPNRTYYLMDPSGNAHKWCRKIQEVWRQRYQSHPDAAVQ
UniProt Q15303, whole entry R711C: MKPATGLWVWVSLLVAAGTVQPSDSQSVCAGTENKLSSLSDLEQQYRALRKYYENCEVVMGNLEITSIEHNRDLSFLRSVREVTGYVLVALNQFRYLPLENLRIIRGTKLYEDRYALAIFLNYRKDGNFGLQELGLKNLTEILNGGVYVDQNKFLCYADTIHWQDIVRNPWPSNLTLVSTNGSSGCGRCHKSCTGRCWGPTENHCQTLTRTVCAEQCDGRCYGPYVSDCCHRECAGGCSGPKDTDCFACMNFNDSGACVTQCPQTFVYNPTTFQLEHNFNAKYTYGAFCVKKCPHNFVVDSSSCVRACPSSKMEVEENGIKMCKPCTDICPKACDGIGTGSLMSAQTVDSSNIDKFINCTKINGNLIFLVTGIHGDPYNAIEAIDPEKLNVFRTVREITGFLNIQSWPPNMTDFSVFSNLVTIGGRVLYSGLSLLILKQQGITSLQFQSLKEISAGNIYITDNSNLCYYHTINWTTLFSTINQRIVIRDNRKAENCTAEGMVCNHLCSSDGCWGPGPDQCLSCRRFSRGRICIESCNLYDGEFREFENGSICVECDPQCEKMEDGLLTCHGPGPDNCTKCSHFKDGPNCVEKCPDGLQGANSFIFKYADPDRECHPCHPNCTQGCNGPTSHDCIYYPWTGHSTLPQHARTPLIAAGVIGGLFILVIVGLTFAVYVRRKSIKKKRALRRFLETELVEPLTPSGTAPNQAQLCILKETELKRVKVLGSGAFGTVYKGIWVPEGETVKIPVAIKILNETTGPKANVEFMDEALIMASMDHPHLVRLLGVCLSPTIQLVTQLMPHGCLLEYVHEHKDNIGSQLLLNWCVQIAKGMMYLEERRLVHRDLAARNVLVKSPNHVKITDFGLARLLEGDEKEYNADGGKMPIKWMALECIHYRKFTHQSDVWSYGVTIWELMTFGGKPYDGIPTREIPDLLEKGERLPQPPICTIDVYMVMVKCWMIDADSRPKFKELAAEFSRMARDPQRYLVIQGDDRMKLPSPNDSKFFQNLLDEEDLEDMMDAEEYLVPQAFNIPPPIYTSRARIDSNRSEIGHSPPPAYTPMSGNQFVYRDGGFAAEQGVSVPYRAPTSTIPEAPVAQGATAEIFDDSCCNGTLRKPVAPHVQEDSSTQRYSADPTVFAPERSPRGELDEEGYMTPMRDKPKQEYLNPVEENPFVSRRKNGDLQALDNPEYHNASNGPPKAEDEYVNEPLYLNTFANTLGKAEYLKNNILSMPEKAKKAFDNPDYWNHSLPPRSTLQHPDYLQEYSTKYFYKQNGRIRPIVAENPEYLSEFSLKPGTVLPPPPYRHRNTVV
UniProt P31749: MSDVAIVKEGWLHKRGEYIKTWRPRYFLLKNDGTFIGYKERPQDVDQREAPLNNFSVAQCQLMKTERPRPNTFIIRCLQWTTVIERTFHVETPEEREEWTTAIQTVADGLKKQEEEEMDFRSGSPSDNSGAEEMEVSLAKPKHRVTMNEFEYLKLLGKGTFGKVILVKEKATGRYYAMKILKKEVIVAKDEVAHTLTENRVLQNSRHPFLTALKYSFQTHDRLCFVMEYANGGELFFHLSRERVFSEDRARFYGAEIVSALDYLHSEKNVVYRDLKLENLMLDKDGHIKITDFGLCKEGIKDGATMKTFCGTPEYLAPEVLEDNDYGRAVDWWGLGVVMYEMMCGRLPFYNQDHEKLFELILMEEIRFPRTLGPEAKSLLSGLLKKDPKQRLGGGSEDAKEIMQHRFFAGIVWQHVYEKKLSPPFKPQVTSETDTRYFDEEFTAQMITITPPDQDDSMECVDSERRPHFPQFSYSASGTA
UniProt Q01974, whole entry: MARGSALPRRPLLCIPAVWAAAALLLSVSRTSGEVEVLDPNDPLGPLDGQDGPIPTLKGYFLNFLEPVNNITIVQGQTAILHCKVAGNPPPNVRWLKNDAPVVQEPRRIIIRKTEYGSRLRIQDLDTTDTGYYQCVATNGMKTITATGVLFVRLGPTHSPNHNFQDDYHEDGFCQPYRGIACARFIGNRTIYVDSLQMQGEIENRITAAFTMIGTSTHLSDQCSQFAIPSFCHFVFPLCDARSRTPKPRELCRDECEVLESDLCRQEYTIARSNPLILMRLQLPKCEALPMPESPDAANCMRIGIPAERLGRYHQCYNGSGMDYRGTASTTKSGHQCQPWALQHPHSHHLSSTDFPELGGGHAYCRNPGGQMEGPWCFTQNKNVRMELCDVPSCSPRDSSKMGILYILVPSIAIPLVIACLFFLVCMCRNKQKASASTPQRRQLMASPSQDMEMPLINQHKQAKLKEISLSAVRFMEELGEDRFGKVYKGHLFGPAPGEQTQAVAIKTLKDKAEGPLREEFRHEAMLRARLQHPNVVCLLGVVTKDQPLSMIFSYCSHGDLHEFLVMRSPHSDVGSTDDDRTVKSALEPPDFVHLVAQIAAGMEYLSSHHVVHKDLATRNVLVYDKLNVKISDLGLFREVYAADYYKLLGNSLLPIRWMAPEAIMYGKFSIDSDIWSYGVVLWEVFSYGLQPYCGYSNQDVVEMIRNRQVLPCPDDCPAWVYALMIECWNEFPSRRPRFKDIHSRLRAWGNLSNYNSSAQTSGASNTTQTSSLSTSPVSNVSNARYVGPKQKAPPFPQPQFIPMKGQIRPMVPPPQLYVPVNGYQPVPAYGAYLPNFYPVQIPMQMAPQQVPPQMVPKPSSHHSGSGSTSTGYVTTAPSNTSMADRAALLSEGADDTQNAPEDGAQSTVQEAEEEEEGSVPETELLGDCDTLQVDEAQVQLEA
UniProt Q92630: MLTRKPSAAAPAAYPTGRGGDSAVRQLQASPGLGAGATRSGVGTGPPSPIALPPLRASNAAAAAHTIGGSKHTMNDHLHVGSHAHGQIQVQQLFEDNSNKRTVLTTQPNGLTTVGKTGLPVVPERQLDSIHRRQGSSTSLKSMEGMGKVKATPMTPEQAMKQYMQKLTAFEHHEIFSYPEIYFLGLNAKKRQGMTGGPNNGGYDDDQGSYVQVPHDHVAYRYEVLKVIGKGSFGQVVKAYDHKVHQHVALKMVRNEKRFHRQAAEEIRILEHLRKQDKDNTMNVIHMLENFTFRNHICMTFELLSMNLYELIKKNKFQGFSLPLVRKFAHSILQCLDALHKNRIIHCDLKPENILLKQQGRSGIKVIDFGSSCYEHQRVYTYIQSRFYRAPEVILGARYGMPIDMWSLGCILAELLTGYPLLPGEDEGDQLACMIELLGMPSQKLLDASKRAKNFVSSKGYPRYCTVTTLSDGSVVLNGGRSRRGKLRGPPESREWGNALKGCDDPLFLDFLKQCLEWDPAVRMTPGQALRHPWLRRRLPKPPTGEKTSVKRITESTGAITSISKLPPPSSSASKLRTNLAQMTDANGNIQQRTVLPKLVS

What was measured:
Experiment in all cases: number of time points (of 5) at which kinase-Nluc abundance scored as decreased, DMSO-normalised (count); higher = more persistent destabilization
[1] = compound: NC(=O)c1c(OCc2c(F)cc(Br)cc2F)nsc1NC(=O)NCCCCN1CCCC1; details: 2.5 µM; K562; 2-18 h
Capivasertib = compound: NC1(C(=O)N[C@@H](CCO)c2ccc(Cl)cc2)CCN(c2nc[nH]c3nccc2-3)CC1 [Capivasertib]; details: 10 µM; K562; 2-18 h
Syk Inhibitor II = compound: NCCNc1ncc(C(N)=O)c(Nc2cccc(C(F)(F)F)c2)n1 [Syk Inhibitor II]; details: 10 µM; K562; 2-18 h
[2] = compound: Nc1nc(Nc2ccc(S(N)(=O)=O)cc2)nn1C(=O)c1c(F)cccc1F; details: 2.5 µM; K562; 2-18 h
Miransertib = compound: Nc1ncccc1-c1nc2ccc(-c3ccccc3)nc2n1-c1ccc(C2(N)CCC2)cc1 [Miransertib]; details: 10 µM; K562; 2-18 h
[3] = compound: Nc1ncnc2c1c(-c1cnc3[nH]ccc3c1)nn2C1CCCC1; details: 2.5 µM; K562; 2-18 h
[4] = compound: Nc1ncnc2n[nH]c(-c3ccc(Oc4ccccc4)cc3)c12 [Ibrutinib deacryloylpiperidine]; details: 10 µM; K562; 2-18 h
[5] = compound: O=C(NCCCNc1nc(Nc2cccc(CN3CCOCC3)c2)ncc1C1CC1)C1CCC1; details: 10 µM; K562; 2-18 h
[6] = compound: N#CC(=Cc1cc(Cl)cc(Cl)c1)c1cccnc1; details: 10 µM; K562; 2-18 h

Measured: number of time points

ULK3 (UniProt Q6PHR2)
0: [1] | Capivasertib | Syk Inhibitor II | [2] | [3] | [4]
2: Miransertib | [5]

PIK4CB (UniProt Q9UBF8)
1: Miransertib
0: [1] | Capivasertib | Syk Inhibitor II | [2] | [4] | [5]
4: [3]

SYK (UniProt P43405)
0: [6] | Capivasertib | Syk Inhibitor II | [2] | Miransertib | [3] | [4] | [5]

EGFR (UniProt P00533)
2: [2]
0: [6] | Capivasertib | Syk Inhibitor II | [5]
1: Miransertib

AURKA (UniProt O14965)
0: [6] | [1] | Capivasertib | Syk Inhibitor II | [4] | [5]
4: Miransertib
3: [3]

RAF1_S257L (clone: RAF1_mut) (UniProt P04049)
0: [1] | Capivasertib | Syk Inhibitor II | [2] | [4] | [5]
4: Miransertib
3: [3]

EGFR_G719S (UniProt P00533)
0: [6] | Capivasertib | Syk Inhibitor II | [2] | [5]
2: Miransertib

ABL1 (UniProt P00519)
4: Miransertib
0: [6] | [1] | Capivasertib | Syk Inhibitor II

RPS6KA1 (UniProt Q15418)
0: [1] | Capivasertib | Syk Inhibitor II | [2] | Miransertib | [3] | [4] | [5]

PIK4CA (UniProt P42356)
0: [1] | Capivasertib | Syk Inhibitor II | [2] | Miransertib | [4] | [5]
4: [3]

PRKAA1 (UniProt Q13131)
1: Miransertib
3: [3]
0: [1] | Capivasertib | Syk Inhibitor II | [2] | [4]

PDGFRB (UniProt P09619)
2: [2]
0: [6] | Capivasertib | Syk Inhibitor II | Miransertib | [4] | [5]

STK24 (UniProt Q9Y6E0)
0: [1] | Capivasertib | Syk Inhibitor II | [2] | Miransertib | [3] | [4] | [5]

MAPK1 (UniProt P28482)
0: [1] | Capivasertib | Syk Inhibitor II | [2] | Miransertib | [3] | [4] | [5]

SRC (UniProt P12931)
0: [6] | [1] | Capivasertib | Syk Inhibitor II | [2] | Miransertib | [5]

RET (UniProt P07949)
0: [6] | Capivasertib | Syk Inhibitor II | [2] | Miransertib | [4] | [5]
1: [3]

NTRK2 (UniProt Q16620)
0: [1] | Capivasertib | Syk Inhibitor II | [2] | Miransertib | [3] | [4] | [5]

TEC (UniProt P42680)
0: [1] | Capivasertib | Syk Inhibitor II | [2] | [3] | [4] | [5]
2: Miransertib

BRAF (UniProt P15056)
0: [6] | Capivasertib | Syk Inhibitor II | [2] | Miransertib | [4] | [5]
2: [3]

RIOK1 (UniProt Q9BRS2)
0: [1] | Capivasertib | Syk Inhibitor II | [2] | Miransertib | [3] | [4] | [5]

PDPK1 (UniProt O15530)
0: [1] | Capivasertib | Syk Inhibitor II | [2] | [4] | [5]
2: Miransertib
4: [3]

ZAP70 (UniProt P43403)
0: [1] | Capivasertib | Syk Inhibitor II | [2] | Miransertib | [3] | [4] | [5]

DYRK1B (UniProt Q9Y463)
0: [1] | Capivasertib | Syk Inhibitor II | [2] | [3] | [4] | [5]
1: Miransertib

INSRR (UniProt P14616)
3: [3]
0: [1] | Capivasertib | Syk Inhibitor II | [2] | Miransertib | [4] | [5]

3 records drawn at random from those above, as already listed:
ZAP70 (UniProt P43403)
0: [1] | Capivasertib | Syk Inhibitor II | [2] | Miransertib | [3] | [4] | [5]

DYRK1B (UniProt Q9Y463)
0: [1] | Capivasertib | Syk Inhibitor II | [2] | [3] | [4] | [5]
1: Miransertib

PDPK1 (UniProt O15530)
0: [1] | Capivasertib | Syk Inhibitor II | [2] | [4] | [5]
2: Miransertib
4: [3]

(list continues)

FYN (UniProt P06241)
3: [3] | [5]
0: [1] | Capivasertib | Syk Inhibitor II | [2] | [4]
1: Miransertib

FLT3 (UniProt P36888)
2: [3]
0: [1] | Capivasertib | Syk Inhibitor II | Miransertib | [4] | [5]
3: [2]

RIPK2 (UniProt O43353)
0: [1] | Capivasertib | Syk Inhibitor II | [2] | [4] | [5]
1: Miransertib
4: [3]

ERBB4_R711C (clone: ERBB4_mut) (UniProt Q15303)
0: [1] | Capivasertib | Syk Inhibitor II | Miransertib | [4] | [5]
2: [2]
4: [3]

MAPKAPK2 (UniProt P49137)
0: [1] | Capivasertib | Syk Inhibitor II | [2] | Miransertib | [3] | [4] | [5]

RIPK1 (UniProt Q13546)
3: [3]
0: [1] | Capivasertib | Syk Inhibitor II | [2] | [4] | [5]
2: Miransertib

EGFR_T790M (UniProt P00533)
0: Capivasertib | Syk Inhibitor II | [2] | Miransertib | [5]

JAK1 (UniProt P23458)
0: [1] | Capivasertib | Syk Inhibitor II | Miransertib | [4] | [5]
1: [2] | [3]

PBK (UniProt Q96KB5)
0: [1] | Capivasertib | Syk Inhibitor II | [2] | Miransertib | [3] | [4] | [5]

PRKCA (UniProt P17252)
0: [1] | Capivasertib | Syk Inhibitor II | [2] | Miransertib | [3] | [4] | [5]

AURKC (UniProt Q9UQB9)
0: [1] | Capivasertib | [2] | Miransertib | [3] | [4] | [5]

LMTK2 (UniProt Q8IWU2)
2: Miransertib
0: [1] | Capivasertib | Syk Inhibitor II | [2] | [4] | [5]
1: [3]

AKT1 (UniProt P31749)
0: [1] | Syk Inhibitor II | [2] | [3] | [4] | [5]

PTK2B (UniProt Q14289)
0: [1] | Capivasertib | Syk Inhibitor II | [2] | Miransertib | [3] | [4] | [5]

EGFR_L858R (UniProt P00533)
0: Capivasertib | Syk Inhibitor II | [2] | [5]
2: Miransertib

PDK1 (UniProt Q15118)
0: [1] | Capivasertib | Syk Inhibitor II | [2] | Miransertib | [3] | [4] | [5]

ERBB3 (UniProt P21860)
3: Miransertib
1: [3]
0: [1] | Capivasertib | Syk Inhibitor II | [2] | [4] | [5]

FGR (UniProt P09769)
0: [1] | Capivasertib | Syk Inhibitor II | [2] | Miransertib | [3] | [4] | [5]

ROR2 (UniProt Q01974)
0: [1] | Capivasertib | Syk Inhibitor II | [2] | Miransertib | [3] | [4] | [5]

EGFR_G719S_T790M (UniProt P00533)
0: Capivasertib | Syk Inhibitor II | [2] | [5]
1: Miransertib

CAMK2A (UniProt Q9UQM7)
0: [1] | Capivasertib | Syk Inhibitor II | [2] | Miransertib | [3] | [4] | [5]

MAP2K2 (UniProt P36507)
1: [2]
0: [1] | Capivasertib | Syk Inhibitor II | Miransertib | [3] | [4] | [5]

IRAK3 (UniProt Q9Y616)
2: [3]
0: [1] | Capivasertib | Syk Inhibitor II | [2] | [4] | [5]
3: Miransertib

EGFR_L861Q (UniProt P00533)
2: Miransertib
0: Capivasertib | Syk Inhibitor II | [5]
1: [2]

DYRK2 (UniProt Q92630)
4: Miransertib | [3]
1: [4]
0: [1] | Capivasertib | Syk Inhibitor II | [2] | [5]

ARAF (UniProt P10398)
0: [1] | Capivasertib | Syk Inhibitor II | [2] | Miransertib | [3] | [4] | [5]

EGFR_L718V (UniProt P00533)
0: Capivasertib | Syk Inhibitor II | [2] | [5]
1: Miransertib
